Assay results reported in PubChem BioAssay AID248 (DTP/NCI, 2004).
The list is a part of this screen's results and no random one: it covers a few groups of compounds. Not every dose and run of a compound is shown. T/C: endpoint of the treated group in % of that of the vehicle group. Where survival is the endpoint, the PubChem record calls one and a half times the control and up active, and a quarter to a half above the control has no call in these data; cut-offs in other NCI protocols can differ. Some T/C values are marked as having no survivor count here; that says nothing about deaths at the dose. Schedule codes are those of the source, taken here to give the interval after Q, in days (D) or hours (H), and the number of doses after X. Brackets with × stand for listed records that agree. Some entries were tested several times; their values stand side by side, smallest first. Some schedules carry Z or #; the key to these is not given.

Tested on: L1210 leukemia ip in BDF1 mice, survival T/C
Experiment: NCI In Vivo Anticancer Drug Screen. Data for tumor model L1210 Leukemia (intraperitoneal) in B6D2F1 (BDF1) mice
Settings: higher T/C = longer survival

## NC1CCCCC1.NP(=O)(O)N(CCCl)CCCl
T/C endpoint: mean survival time, dose: 50.0 mg/kg/injection, schedule: Q04DX003 (ip), vehicle: saline
  T/C: 143 % of control [survivor count not shown]
T/C endpoint: mean survival time, dose: 50.0 mg/kg/injection, schedule: Q04DX003 (ip), vehicle: water
  T/C: 138 % of control [survivor count not shown]
T/C endpoint: mean survival time, dose: 50.0 mg/kg/injection, schedule: Q04DX005 (ip), vehicle: saline
  T/C: 144 % of control [survivor count not shown]
T/C endpoint: mean survival time, dose: 50.0 mg/kg/injection, schedule: Q08DX002 (ip), vehicle: saline
  T/C: 135 % of control [survivor count not shown]
T/C endpoint: mean survival time, dose: 50.0 mg/kg/injection, schedule: Q08DX003 (ip), vehicle: saline
  T/C: 134 [survivor count not shown] and 136 % of control [survivor count not shown]
T/C endpoint: mean survival time, dose: 50.0 mg/kg/injection, schedule: Q#A X034 (ip), vehicle: saline
  T/C: 130 % of control [survivor count not shown]
T/C endpoint: mean survival time, dose: 54.0 mg/kg/injection, schedule: Q04DX003 (ip), vehicle: clinical formulation
  T/C: 188 % of control [survivor count not shown]
T/C endpoint: mean survival time, dose: 54.0 mg/kg/injection, schedule: Q04DX003 (ip), vehicle: water
  T/C: 184 % of control [survivor count not shown]
T/C endpoint: mean survival time, dose: 59.0 mg/kg/injection, schedule: Q01DX001 (ip), vehicle: saline
  T/C: 132 % of control [survivor count not shown] (2×)
T/C endpoint: mean survival time, dose: 62.5 mg/kg/injection, schedule: Q08DX002 (ip), vehicle: water
  T/C: 134 [survivor count not shown] and 155 % of control [survivor count not shown]
T/C endpoint: mean survival time, dose: 66.0 mg/kg/injection, schedule: Q01DX001 (ip), vehicle: saline
  T/C: 167 % of control [survivor count not shown]
T/C endpoint: mean survival time, dose: 80.0 mg/kg/injection, schedule: Q01DX001 (ip), vehicle: saline
  T/C: 206 % of control [survivor count not shown]
T/C endpoint: mean survival time, dose: 80.0 mg/kg/injection, schedule: Q01DX001 (oral), vehicle: saline
  T/C: 100 % of control [survivor count not shown]
T/C endpoint: mean survival time, dose: 80.0 mg/kg/injection, schedule: Q01DX001 (sc), vehicle: saline
  T/C: 101 % of control [survivor count not shown]
T/C endpoint: mean survival time, dose: 80.0 mg/kg/injection, schedule: Q01DX005 (ip), vehicle: saline
  T/C: 144 % of control [survivor count not shown]
T/C endpoint: mean survival time, dose: 80.0 mg/kg/injection, schedule: Q01DX009 (ip), vehicle: saline
  T/C: 111 % of control [survivor count not shown]
T/C endpoint: mean survival time, dose: 80.0 mg/kg/injection, schedule: Q01DX009 (oral), vehicle: saline
  T/C: 113 % of control [survivor count not shown]
T/C endpoint: mean survival time, dose: 80.0 mg/kg/injection, schedule: Q01DX009 (sc), vehicle: saline
  T/C: 120 % of control [survivor count not shown]
T/C endpoint: mean survival time, dose: 80.0 mg/kg/injection, schedule: Q04DX003 (ip), vehicle: clinical formulation
  T/C: 225 % of control [survivor count not shown]
T/C endpoint: mean survival time, dose: 80.0 mg/kg/injection, schedule: Q04DX003 (ip), vehicle: saline
  T/C: 224 % of control [survivor count not shown]
T/C endpoint: mean survival time, dose: 80.0 mg/kg/injection, schedule: Q04DX003 (ip), vehicle: water
  T/C: 242 % of control [survivor count not shown]
T/C endpoint: mean survival time, dose: 89.0 mg/kg/injection, schedule: Q01DX001 (ip), vehicle: saline
  T/C: 133 % of control [survivor count not shown] (2×)
T/C endpoint: mean survival time, dose: 90.0 mg/kg/injection, schedule: Q01DX001 (ip), vehicle: saline
  T/C: 207 % of control [survivor count not shown]
T/C endpoint: mean survival time, dose: 92.0 mg/kg/injection, schedule: Q01DX001 (ip), vehicle: saline
  T/C: 296 % of control [survivor count not shown]
T/C endpoint: mean survival time, dose: 100.0 mg/kg/injection, schedule: Q01DX001 (ip), vehicle: saline
  T/C: 124 [survivor count not shown], 149 [survivor count not shown], 150 [survivor count not shown], 152 [survivor count not shown], 164 [survivor count not shown], 165 [survivor count not shown], 176 [survivor count not shown], 219 % of control [survivor count not shown]
T/C endpoint: mean survival time, dose: 100.0 mg/kg/injection, schedule: Q01DX001 (ip), vehicle: water
  T/C: 205 % of control [survivor count not shown]
T/C endpoint: mean survival time, dose: 100.0 mg/kg/injection, schedule: Q01DX005 (ip), vehicle: saline
  T/C: 86 % of control [survivor count not shown]
T/C endpoint: mean survival time, dose: 100.0 mg/kg/injection, schedule: Q01DX009 (ip), vehicle: saline
  T/C: 94 % of control [survivor count not shown]
T/C endpoint: mean survival time, dose: 100.0 mg/kg/injection, schedule: Q01DX017 (ip), vehicle: saline
  T/C: 104 % of control [survivor count not shown]
T/C endpoint: mean survival time, dose: 100.0 mg/kg/injection, schedule: Q02DX005 (ip), vehicle: saline
  T/C: 226 % of control [survivor count not shown]
T/C endpoint: mean survival time, dose: 100.0 mg/kg/injection, schedule: Q02DX009 (ip), vehicle: saline
  T/C: 185 [survivor count not shown] and 274 % of control [survivor count not shown]
T/C endpoint: mean survival time, dose: 100.0 mg/kg/injection, schedule: Q04DX003 (ip), vehicle: saline
  T/C: 227 % of control [survivor count not shown]
T/C endpoint: mean survival time, dose: 100.0 mg/kg/injection, schedule: Q04DX003 (ip), vehicle: water
  T/C: 206 % of control [survivor count not shown]
T/C endpoint: mean survival time, dose: 100.0 mg/kg/injection, schedule: Q04DX005 (ip), vehicle: saline
  T/C: 190 % of control [survivor count not shown]
T/C endpoint: mean survival time, dose: 100.0 mg/kg/injection, schedule: Q08DX002 (ip), vehicle: saline
  T/C: 252 % of control [survivor count not shown]
T/C endpoint: mean survival time, dose: 100.0 mg/kg/injection, schedule: Q08DX003 (ip), vehicle: saline
  T/C: 135 [survivor count not shown] and 148 % of control [survivor count not shown]
T/C endpoint: mean survival time, dose: 120.0 mg/kg/injection, schedule: Q04DX003 (ip), vehicle: clinical formulation
  T/C: 206 % of control [survivor count not shown]
T/C endpoint: mean survival time, dose: 120.0 mg/kg/injection, schedule: Q04DX003 (ip), vehicle: water
  T/C: 215 % of control [survivor count not shown]
T/C endpoint: mean survival time, dose: 125.0 mg/kg/injection, schedule: Q08DX002 (ip), vehicle: water
  T/C: 171 [survivor count not shown] and 225 % of control [survivor count not shown]
T/C endpoint: mean survival time, dose: 133.0 mg/kg/injection, schedule: Q01DX001 (ip), vehicle: saline
  T/C: 142 [survivor count not shown] (2×) and 241 % of control [survivor count not shown]
T/C endpoint: mean survival time, dose: 140.0 mg/kg/injection, schedule: Q01DX001 (ip), vehicle: saline
  T/C: 440 % of control [survivor count not shown]
T/C endpoint: mean survival time, dose: 150.0 mg/kg/injection, schedule: Q01DX001 (ip), vehicle: saline
  T/C: 260 [survivor count not shown] and 264 % of control [survivor count not shown]
T/C endpoint: mean survival time, dose: 160.0 mg/kg/injection, schedule: Q01DX001 (ip), vehicle: saline
  T/C: 120 % of control [survivor count not shown]
T/C endpoint: mean survival time, dose: 160.0 mg/kg/injection, schedule: Q01DX001 (oral), vehicle: saline
  T/C: 107 % of control [survivor count not shown]
T/C endpoint: mean survival time, dose: 160.0 mg/kg/injection, schedule: Q01DX001 (sc), vehicle: saline
  T/C: 121 % of control [survivor count not shown]
T/C endpoint: mean survival time, dose: 160.0 mg/kg/injection, schedule: Q01DX009 (oral), vehicle: saline
  T/C: 119 % of control [survivor count not shown]
T/C endpoint: mean survival time, dose: 200.0 mg/kg/injection, schedule: Q01DX001 (ip), vehicle: saline
  T/C: 192 [survivor count not shown] (2×), 202 [survivor count not shown], 206 [survivor count not shown] (2×), 274 [survivor count not shown], 297 [survivor count not shown], 329 [survivor count not shown], 332 [survivor count not shown], 487 % of control [survivor count not shown]
T/C endpoint: mean survival time, dose: 200.0 mg/kg/injection, schedule: Q01DX001 (ip), vehicle: water
  T/C: 265 % of control [survivor count not shown]
T/C endpoint: mean survival time, dose: 200.0 mg/kg/injection, schedule: Q02DX009 (ip), vehicle: saline
  T/C: 98 % of control [survivor count not shown]
T/C endpoint: mean survival time, dose: 200.0 mg/kg/injection, schedule: Q04DX003 (ip), vehicle: saline
  T/C: 98 % of control [survivor count not shown]
T/C endpoint: mean survival time, dose: 200.0 mg/kg/injection, schedule: Q04DX003 (ip), vehicle: water
  T/C: 97 % of control [survivor count not shown]
T/C endpoint: mean survival time, dose: 200.0 mg/kg/injection, schedule: Q04DX005 (ip), vehicle: saline
  T/C: 210 % of control [survivor count not shown]
T/C endpoint: mean survival time, dose: 200.0 mg/kg/injection, schedule: Q08DX002 (ip), vehicle: saline
  T/C: 354 % of control [survivor count not shown]
T/C endpoint: mean survival time, dose: 200.0 mg/kg/injection, schedule: Q08DX003 (ip), vehicle: saline
  T/C: 245 [survivor count not shown] and 370 % of control [survivor count not shown]
T/C endpoint: mean survival time, dose: 210.0 mg/kg/injection, schedule: Q01DX001 (ip), vehicle: saline
  T/C: 515 % of control [survivor count not shown]
T/C endpoint: mean survival time, dose: 225.0 mg/kg/injection, schedule: Q01DX001 (ip), vehicle: saline
  T/C: 148 [survivor count not shown] and 329 % of control [survivor count not shown]
T/C endpoint: mean survival time, dose: 250.0 mg/kg/injection, schedule: Q08DX002 (ip), vehicle: water
  T/C: 90 [survivor count not shown] and 122 % of control [survivor count not shown]
T/C endpoint: mean survival time, dose: 300.0 mg/kg/injection, schedule: Q01DX001 (ip), vehicle: saline
  T/C: 190 [survivor count not shown] (2×), 258 [survivor count not shown], 466 % of control [survivor count not shown]
T/C endpoint: mean survival time, dose: 320.0 mg/kg/injection, schedule: Q01DX001 (oral), vehicle: saline
  T/C: 113 % of control [survivor count not shown]
T/C endpoint: mean survival time, dose: 337.0 mg/kg/injection, schedule: Q01DX001 (ip), vehicle: saline
  T/C: 143 % of control [survivor count not shown]
T/C endpoint: mean survival time, dose: 400.0 mg/kg/injection, schedule: Q01DX001 (ip), vehicle: saline
  T/C: 84 [survivor count not shown], 90 [survivor count not shown], 91 % of control [survivor count not shown]
T/C endpoint: mean survival time, dose: 450.0 mg/kg/injection, schedule: Q01DX001 (ip), vehicle: saline
  T/C: 195 % of control [survivor count not shown] (2×)
T/C endpoint: mean survival time, dose: 500.0 mg/kg/injection, schedule: Q01DX001 (ip), vehicle: saline
  T/C: 160 % of control [survivor count not shown]
T/C endpoint: median survival time, dose: 50.0 mg/kg/injection, schedule: Q01DX001 (ip), vehicle: saline
  T/C: 122 [survivor count not shown], 127 [survivor count not shown], 150 % of control [survivor count not shown]
T/C endpoint: median survival time, dose: 100.0 mg/kg/injection, schedule: Q01DX001 (ip), vehicle: saline
  T/C: 136 [survivor count not shown], 142 [survivor count not shown], 177 % of control [survivor count not shown]
T/C endpoint: median survival time, dose: 100.0 mg/kg/injection, schedule: Q08DX003 (ip), vehicle: saline
  T/C: 205 % of control [survivor count not shown]
T/C endpoint: median survival time, dose: 200.0 mg/kg/injection, schedule: Q01DX001 (ip), vehicle: saline
  T/C: 150 [survivor count not shown], 155 [survivor count not shown], 188 % of control [survivor count not shown]
T/C endpoint: median survival time, dose: 200.0 mg/kg/injection, schedule: Q08DX003 (ip), vehicle: saline
  T/C: 583 % of control [survivor count not shown]
T/C endpoint: median survival time, dose: 400.0 mg/kg/injection, schedule: Q01DX001 (ip), vehicle: saline
  T/C: 40 % of control [survivor count not shown]
